{
  "source": "the supplement of paper PMC3334620",
  "note": "The full ranking holds about 33,000 sequences; the median of “E-score (-0.5 to 0.5)” is about -0.0034, and the highest 2% start at about 0.25. The list shows a part of the results.",
  "data": [
    {"molecular_target": "T1, Yap3 (UniProt P38749)", "T1 sequence": "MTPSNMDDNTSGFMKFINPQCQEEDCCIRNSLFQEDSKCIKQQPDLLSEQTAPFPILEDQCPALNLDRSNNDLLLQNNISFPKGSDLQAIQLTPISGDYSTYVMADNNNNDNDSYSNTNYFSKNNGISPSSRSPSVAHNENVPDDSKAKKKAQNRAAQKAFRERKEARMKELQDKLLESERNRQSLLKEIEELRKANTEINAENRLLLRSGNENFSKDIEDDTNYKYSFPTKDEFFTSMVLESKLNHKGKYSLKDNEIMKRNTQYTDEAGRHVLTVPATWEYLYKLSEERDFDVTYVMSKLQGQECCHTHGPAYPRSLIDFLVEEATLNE", "experiment": "PBM E-score (8-mer binding enrichment) (E-score (-0.5 to 0.5)); higher = stronger / more preferred TF binding", "conditions": "protein concentration: 100 nM; construct: GST-full length", "procedure,_shortened": "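GST-tagged yeast TFs (full-length or DNA-binding domain) were made by PURExpress in vitro transcription/translation and applied at about 100-200 nM to universal all-10-mer Agilent arrays. The arrays were made double-stranded by primer extension, on fresh or once-stripped slides. Bound protein was detected with fluorescent anti-GST, and scans were normalised with masliner. Each ungapped eight-base word, pooled with its reverse complement, received an E-score (modified Wilcoxon-Mann-Whitney statistic) from the Universal PBM Analysis Suite.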", "values": [
      {"sequence": "ATCTTTCC", "PBM E-score": 0.0904},
      {"sequence": "GATACGTA", "PBM E-score": -0.0185},
      {"sequence": "CCATGCCA", "PBM E-score": -0.0801},
      {"sequence": "CAAGGTCA", "PBM E-score": -0.16},
      {"sequence": "ATTCTCGC", "PBM E-score": -0.173},
      {"sequence": "AGTGAAAG", "PBM E-score": 0.00072},
      {"sequence": "AAGTAATC", "PBM E-score": 0.153},
      {"sequence": "ATCAGTTA", "PBM E-score": 0.272},
      {"sequence": "CTTTTCTA", "PBM E-score": -0.0208},
      {"sequence": "ACGATGAT", "PBM E-score": -0.0821},
      {"sequence": "AGGTGGAT", "PBM E-score": -0.0747},
      {"sequence": "GTTCGGCA", "PBM E-score": -0.0135},
      {"sequence": "CGATCCAG", "PBM E-score": -0.0469},
      {"sequence": "CTTCTAAA", "PBM E-score": 0.0164},
      {"sequence": "TAGACTGA", "PBM E-score": -0.0011},
      {"sequence": "CGGTTCAC", "PBM E-score": -0.209},
      {"sequence": "CTAAATTC", "PBM E-score": 0.0265},
      {"sequence": "TCCGCACA", "PBM E-score": 0.0236},
      {"sequence": "CGTGGCGA", "PBM E-score": -0.105},
      {"sequence": "ATAAAAAA", "PBM E-score": 0.187},
      {"sequence": "CACTCCTA", "PBM E-score": -0.07},
      {"sequence": "GGGTACTA", "PBM E-score": 0.112},
      {"sequence": "AACGTTAG", "PBM E-score": 0.111},
      {"sequence": "ATGAGGTA", "PBM E-score": 0.0828},
      {"sequence": "GACTAAGA", "PBM E-score": 0.0159},
      {"sequence": "AAGACGTA", "PBM E-score": 0.0429},
      {"sequence": "AAGCGGAT", "PBM E-score": 0.0146},
      {"sequence": "AGAAGTGC", "PBM E-score": -0.106},
      {"sequence": "AATCAACC", "PBM E-score": -0.0555},
      {"sequence": "AGCAAGCT", "PBM E-score": -0.244},
      {"sequence": "ATTTGAGA", "PBM E-score": 0.158},
      {"sequence": "GTGTTCTA", "PBM E-score": 0.174},
      {"sequence": "ACGGCGTA", "PBM E-score": -0.0154},
      {"sequence": "AAGGAACC", "PBM E-score": 0.0912},
      {"sequence": "AAAAGTAT", "PBM E-score": 0.214},
      {"sequence": "CTAAGAGC", "PBM E-score": -0.0549},
      {"sequence": "AACCTCGA", "PBM E-score": 0.0325},
      {"sequence": "ACGCTGAG", "PBM E-score": 0.0794},
      {"sequence": "ACTCACCA", "PBM E-score": -0.0571},
      {"sequence": "TAATGGAA", "PBM E-score": 0.256},
      {"sequence": "CGAATCAC", "PBM E-score": 0.111},
      {"sequence": "AAGACCCC", "PBM E-score": -0.191},
      {"sequence": "AAAATACC", "PBM E-score": 0.0504},
      {"sequence": "AGGGCGAC", "PBM E-score": -0.093},
      {"sequence": "AACCGCGA", "PBM E-score": 0.175},
      {"sequence": "GAACATAA", "PBM E-score": 0.134},
      {"sequence": "CGTCATAG", "PBM E-score": -0.0803},
      {"sequence": "TCACCGCA", "PBM E-score": -0.103},
      {"sequence": "CCAGCTGG", "PBM E-score": -0.0138},
      {"sequence": "GGGATGAC", "PBM E-score": -0.00457},
      {"sequence": "AACTTGGA", "PBM E-score": 0.00371},
      {"sequence": "AAGCCGAC", "PBM E-score": -0.0657},
      {"sequence": "AGGCCCAC", "PBM E-score": -0.304},
      {"sequence": "GAATACGC", "PBM E-score": 0.0947},
      {"sequence": "ACCGTCAA", "PBM E-score": 0.0196},
      {"sequence": "CGTTCAGC", "PBM E-score": 0.0715},
      {"sequence": "CCACCTCC", "PBM E-score": -0.198},
      {"sequence": "ACTTCCGA", "PBM E-score": 0.0743},
      {"sequence": "GCGAAGAA", "PBM E-score": -0.0228},
      {"sequence": "GTGTCCTA", "PBM E-score": -0.0481},
      {"sequence": "GTGTCTGA", "PBM E-score": 0.114},
      {"sequence": "CGGAAGCC", "PBM E-score": -0.259},
      {"sequence": "AGTGGCGA", "PBM E-score": 0.176},
      {"sequence": "GCAACATA", "PBM E-score": 0.0566},
      {"sequence": "TGACACCA", "PBM E-score": 0.0134},
      {"sequence": "ATTCCACG", "PBM E-score": 0.0384},
      {"sequence": "AGCGCGTG", "PBM E-score": -0.0708},
      {"sequence": "GCGGAGAC", "PBM E-score": 0.119},
      {"sequence": "ATGGCCGA", "PBM E-score": 0.0282},
      {"sequence": "GGCGGCAA", "PBM E-score": 0.0366},
      {"sequence": "GCCTAAAC", "PBM E-score": -0.0538},
      {"sequence": "CGGCCTGC", "PBM E-score": -0.257},
      {"sequence": "TCGGGTAA", "PBM E-score": 0.00408},
      {"sequence": "AGTAGTGC", "PBM E-score": -0.00418},
      {"sequence": "GGAAATCC", "PBM E-score": 0.0434},
      {"sequence": "GACGACGA", "PBM E-score": 0.091},
      {"sequence": "AAAAACCA", "PBM E-score": 0.174},
      {"sequence": "GCGATAAC", "PBM E-score": 0.0383},
      {"sequence": "CATGTGAG", "PBM E-score": -0.0621},
      {"sequence": "AAAGTTAC", "PBM E-score": 0.121},
      {"sequence": "AGGGGCAT", "PBM E-score": -0.0626},
      {"sequence": "CGGACCAC", "PBM E-score": -0.103},
      {"sequence": "CATTTGTA", "PBM E-score": 0.159},
      {"sequence": "AGACTGAG", "PBM E-score": -0.175},
      {"sequence": "GGTATTAA", "PBM E-score": -0.00206},
      {"sequence": "CGACCATA", "PBM E-score": 0.0163}
    ]}
  ]
}
